Laboratory results: PMC6901826
No constants are given. Whether binding was seen depends on the method and setting. In cells and extracts the contact can be indirect. Some binding calls cover weakened binding; strength is not graded here. Where a sequence is shown, tags or fusion partners need not be part of it.

B1: TACI-S, YFP or mCherry labeled (receptor, UniProt O14836-2 1-247)
chain: MSGLGRSRRGGRSRVDQEERWSLSCRKEQGKFYDHLLRDCISCASICGQHPKQCAYFCENKLRSPVNLPPELRRQRSGEVENNSDNSGRYQGLEHRGSEASPALPGLKLSADQVALVYSTLGLCLCAVLCCFLVAVACFLKKRGDPCSCQPRSRPRQSPAKSSQDHAMEAGSPVSTSPEPVETCSFCFPECRAPTQESAVTPGTPDPTCAGRWGCHTRTTVLQPCPHIPDSGLGIVCVPAQEGGPGA
B2: HA-labeled TACI-S (receptor, UniProt O14836-2 1-247)
chain: B1 chain
B3: TACI-L, FLAG-labeled (bait) or HA-labeled (prey) (receptor, UniProt O14836 1-293)
chain: MSGLGRSRRGGRSRVDQEERFPQGLWTGVAMRSCPEEQYWDPLLGTCMSCKTICNHQSQRTCAAFCRSLSCRKEQGKFYDHLLRDCISCASICGQHPKQCAYFCENKLRSPVNLPPELRRQRSGEVENNSDNSGRYQGLEHRGSEASPALPGLKLSADQVALVYSTLGLCLCAVLCCFLVAVACFLKKRGDPCSCQPRSRPRQSPAKSSQDHAMEAGSPVSTSPEPVETCSFCFPECRAPTQESAVTPGTPDPTCAGRWGCHTRTTVLQPCPHIPDSGLGIVCVPAQEGGPGA

Columns and labels:
[1] = target: T1, TACI-L, YFP or mCherry labeled (UniProt O14836); assay: FRET or BRET; FRET read by FACS (LSRII) in HEK-293T cells co-transfected with YFP and mCherry labeled constructs, 48 h after transfection; at least 50,000 positive cells; CD40-eYFP as a control
T1 sequence: B3 chain

[2] = target: T2, TACI-L, FLAG-labeled (bait) or HA-labeled (prey) (UniProt O14836); assay: co-IP; HA-labeled and FLAG-labeled TACI transfected into HEK-293T cells; precipitated by FLAG, immunoblot with anti-HA
T2 sequence: B3 chain

Row | Binder | binding [1] | binding [2]
1 | B1 | binds | –
2 | B2 | – | binds
3 | B3 | – | binds
